Data: PMC12561186

The chains behind the UniProt entries cited, without tags or fusion partners.
UniProt P23526: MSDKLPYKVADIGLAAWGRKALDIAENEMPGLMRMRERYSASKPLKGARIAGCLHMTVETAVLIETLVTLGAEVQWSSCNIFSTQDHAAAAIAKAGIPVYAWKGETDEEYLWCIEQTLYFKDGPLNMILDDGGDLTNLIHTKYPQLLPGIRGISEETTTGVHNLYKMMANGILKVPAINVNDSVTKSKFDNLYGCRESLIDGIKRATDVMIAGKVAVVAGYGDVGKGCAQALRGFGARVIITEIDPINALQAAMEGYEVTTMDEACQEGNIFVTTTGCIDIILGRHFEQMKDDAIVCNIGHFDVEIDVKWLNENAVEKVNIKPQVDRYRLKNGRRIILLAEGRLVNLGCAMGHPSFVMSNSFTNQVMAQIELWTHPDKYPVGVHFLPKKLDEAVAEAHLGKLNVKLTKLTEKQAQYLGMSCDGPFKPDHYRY

Target: stress‐induced phosphoprotein 1 (STIP1), endogenous (human (endogenous in ESCC cell lines KYSE450, KYSE510)) (UniProt P31948)
Assay: affinity purification with mass spectrometry; STIP1 complexes immunoprecipitated with anti-STIP1 antibody (normal IgG control) from KYSE450 and KYSE510 lysates, Protein A/G beads, SDS-PAGE, in-gel trypsin digestion, LC-MS/MS

Substance	binding
IMPDH2, endogenous (from UniProt P12268 1-514) (enzyme)	binds
Trypsin‐1 (from UniProt P07477) (enzyme)	binds
adenosylhomocysteinase (AHCY), endogenous (from UniProt P23526 1-432) (enzyme)	binds

Results are given in words; binding and its absence hold for the method and conditions named. Binding seen in cells or lysates may run through a third protein. Here binding means that the protein was enriched with, or labelled near, the bait; the list need not be complete.
